Source: PubChem BioAssay AID1259415 (National Center for Advancing Translational Sciences (NCATS), 2018)
Among all 410,000 compounds or so, about 18,000 (4.4%) were called active. Inconclusive means that the source gave no clear call. Such entries were picked first, then a sample of the others. Rule as the data show it: active = activity change below about -60%; inconclusive = no clear call, values can overlap the other calls; inactive = above about -39%.

Experiment: qHTS Assay for inhibitors of the human cytomegalovirus (HCMV)
Settings: HFF cells, HCMV-luciferase reporter, 72 h; at 57.5 µM; hits give low values
In short: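 HFF cells seeded 16 h at 37C, treated with compounds, infected with luciferase-reporter HCMV at MOI 1 PFU/cell; luciferase read at 72 h post infection, normalized to buffer-only and Salinomycin controls.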
% is scaled to controls: 0 for no effect and ±100 for the full control effect.

Row | SMILES | activity change, negative = inhibition
1 | C[C@H](c1ccccc1)N1C[C@@H](COCc2ccccc2)Oc2cc(N3CC[C@H](O)C3)ccc2S1(=O)=O | active: -76.2%
2 | O=[N+]([O-])c1cc(C(F)(F)F)ccc1NCCc1ccncc1 | inconclusive: -51.4%
3 | N#Cc1c(NC(=O)c2ccc([N+](=O)[O-])o2)sc2c1CCC2 | inconclusive: -43.8%
4 | CN(CCC#N)C(=S)Nc1ccc(Oc2ccccc2)cc1 | inactive: -29.7%
5 | COc1ccc(-n2nnnc2C(c2cccc3ccccc23)N2CCC(n3c(=O)[nH]c4ccccc43)CC2)cc1 (centres undefined) | inconclusive: -48.4%
6 | O=C(CNCc1ccccc1Cl)Nc1ccc(C(=O)N2CCCCC2)cc1 | inconclusive: -41.6%
7 | CCN(Cc1ccccc1)c1ccc(/C=N/N=C(N)N)cc1 | active: -61.9%
8 | O=c1c2oc3ccccc3c2n(Cc2cccc(F)c2)c(=O)n1Cc1ccc2c(c1)OCO2 | inconclusive: -48.1%
9 | CC(C)(C)OC(=O)N1CCC(C(=O)Nc2ccc(C(=O)NCCc3ccccc3)cc2)CC1 | inconclusive: -40.3%
10 | O=C1CCCc2nc(N3CCc4ccccc43)ncc21 | inactive: 97.6%
11 | COc1cccc(CN(C)C(=S)Nc2ccc(C)c(C)c2)c1 | inconclusive: -51.6%
12 | O=C(NCc1ccccc1F)Nc1nnc([C@H]2C[C@H](O)[C@@H](CO)O2)s1 | active: -93.1%
13 | N/C(=N\c1nc2c(c(=O)[nH]1)CCCC2)Nc1ccc(Oc2ccccc2)cc1 | inconclusive: -54.2%
14 | COCCOc1cc(NC(=O)c2cccc(OC)c2)c(Cl)cc1Cl | inactive: -18.1%
15 | CCOC(=O)C1(Cc2ccccc2C(F)(F)F)CCN(C2CCSC2)CC1 (centres undefined) | inconclusive: -40.8%
16 | CCCCCC(=O)Nc1nc(C)c(-c2csc(Nc3ccccc3OCC)n2)s1 | inactive: -6.83%
17 | S=C(NCc1ccc(Cl)cc1)NC1CCN(Cc2ccccc2)CC1 | active: -89.2%
18 | NS(=O)(=O)c1ccc(NC(=O)/C=C/c2cn(-c3ccccc3)nc2-c2cccc(Cl)c2)cc1 | inconclusive: -58.3%
19 | O=C(O)Cc1ccc(N2N=C(c3ccccc3)CC2=O)cc1 | inconclusive: -42.1%
20 | CSc1nnc(-c2ccc(C(F)(F)F)cn2)o1 | inconclusive: -46.3%
21 | CC(=O)N1CCN(C(=O)COc2ccccc2C(=O)Nc2ccccc2)CC1 | inconclusive: -50.9%
22 | CNc1cccc(-c2c(OC)cccc2OC)n1 | inactive: -11.3%
23 | C[N+](C)(C)CC(=O)O | inconclusive: -54.1%
24 | O=C(NCCc1c[nH]c2ccccc12)c1cc(S(=O)(=O)N2CCCCC2)ccc1N1CCOCC1 | inactive: -13.3%
25 | CCCCn1c(N)c(N(CC)C(=O)CN2C(=O)NC(C)(c3ccccc3)C2=O)c(=O)[nH]c1=O (centres undefined) | inconclusive: -45.6%
26 | O=C(COC(=O)C12CC3CC(CC(O)(C3)C1)C2)Nc1ccc(Br)cc1F | inactive: -34.4%
27 | Cc1c(C(=O)NCc2ccc3c(c2)OCCO3)sc(=O)n1Cc1cccc(C(F)(F)F)c1 | active: -78.6%

A few values from the entries so far.
N#Cc1c(NC(=O)c2ccc([N+](=O)[O-])o2)sc2c1CCC2 | activity change, negative = inhibition: inconclusive: -43.8%
CCCCCC(=O)Nc1nc(C)c(-c2csc(Nc3ccccc3OCC)n2)s1 | activity change, negative = inhibition: inactive: -6.83%

(cont.)

Row | SMILES | activity change, negative = inhibition
28 | C=C(C)c1cccc(C(C)(C)NC(=O)N2CCC(C)CC2)c1 | inconclusive: -41.2%
29 | N#Cc1ccccc1Cn1c(SCC(=O)NCc2ccccc2)nc2ccccc21 | inconclusive: -47.8%
30 | OC(CN1CCN(c2cccc(C(F)(F)F)c2)CC1)c1c[nH]c2ccccc12 (centres undefined) | inactive: 22.6%
31 | Cc1sc2nc(SCC(=O)C(C)(C)C)n(Cc3ccco3)c(=O)c2c1C | active: -97.9%
32 | Cc1ccc(-c2nnc(Nc3cccc(O)c3)c3ccccc23)cc1S(=O)(=O)NCCO | inconclusive: -51.5%
33 | COc1cccc(/C=C2/NC(=O)NC2=O)c1OCC(=O)Nc1ccccc1 | inconclusive: -45.3%
34 | CCOc1ccccc1N(CC)C(=O)c1ccc2c(=O)n3c(nc2c1)CCCCC3 | inconclusive: -51%
35 | CC(C)(C)c1ccc(S(=O)(=O)Nc2ccc(Cc3ccncc3)cc2)cc1 | inconclusive: -47%
36 | Fc1ccc(Nc2nc(NCc3ccccc3)nc3ccsc23)cc1 | inconclusive: -55.3%
37 | C[C@H](CO)N1C[C@H](C)[C@H](CN(C)S(=O)(=O)c2cccs2)Oc2ccc(NC(=O)Nc3ccc4c(c3)OCO4)cc2CC1=O | active: -69%
38 | O=C(/C(Cl)=C/Nc1ccc(Br)cn1)C(F)(F)F | inactive: -4.34%
39 | O=C(O)/C(=C/c1ccc(Cl)c([N+](=O)[O-])c1)c1ccc(S(=O)(=O)N2CCCCC2)s1 | inconclusive: -41.4%
40 | Nc1ccc(C(=O)Nc2ccc(NC(=O)c3ccco3)c(O)c2)cc1 | inconclusive: -52.8%
41 | CCOc1ccccc1NC(=O)NCc1ccccc1 | inconclusive: -50.3%
42 | CC(C)CCn1c(SCc2c(F)cccc2Cl)nc2ccsc2c1=O | inactive: 13.5%
43 | O=C(Nc1c(C(=O)N2CCOCC2)cnn1-c1ccccc1)c1cccc(F)c1 | inconclusive: -50.5%
44 | Cc1cccc(C)c1NC(=O)CSc1nc(-c2cccs2)cc(C(F)(F)F)n1 | inconclusive: -53%
45 | CC(C)NC(=O)CC(=O)N/N=C/c1ccc(Br)cc1 | inactive: 26.4%
46 | CCCCCCCCCC(=O)NNC(=O)c1c(O)c2ccccc2n(CC)c1=O | inconclusive: -55.4%
47 | Cc1cc(C)cc(NC(=S)Nc2cccc3ccccc23)c1 | inconclusive: -45.5%
48 | c1ccc(CCSc2ncnc3nc[nH]c23)cc1 | inconclusive: -44.5%
49 | CCCC(C)NC(=O)c1sc2nc3n(c(=O)c2c1C)CCC3 (centres undefined) | inconclusive: -40.7%
50 | COc1ccc2c(c1)c(CC(=O)OCC(N)=O)c(C)n2C(=O)c1ccc(Cl)cc1 | inconclusive: -46.8%
51 | Cc1ccc(Nc2ccc(N3CCN(C(=O)c4ccc([N+](=O)[O-])cc4Cl)CC3)nn2)cc1 | inactive: -36.2%
52 | Cc1ccc(S(=O)(=O)N2CCN(CC(=O)N/N=C\c3ccc(Cl)c([N+](=O)[O-])c3)CC2)cc1 | inconclusive: -56%
53 | COc1ccc(/C=C(\NC(=O)c2ccccc2)C(=O)OCC2CCCN3CCCCC23)cc1OC (centres undefined) | inconclusive: -40.2%
54 | O=c1nc2n(c3ccc([N+](=O)[O-])cc13)CCCCC2 | inactive: 94.2%
